Experimental findings from ChEMBL document CHEMBL5346880, “ATP-competitive inhibitors of human DNA topoisomerase IIα with improved antiproliferative activity based on N-phenylpyrrolamide scaffold” (Eur J Med Chem, 2023) are described below.

The structures appear in SMILES notation. Some results are limits rather than exact numbers.

One experiment relates to MCF7. In words: cells. Particulars: Homo sapiens, MCF7, 72 h.
The subject of another experiment is HepG2. The experiment is described as follows: cells. The following applies: Homo sapiens, HepG2, 72 h.

Consider `Cc1[nH]c(C(=O)Nc2ccc(C(N)=O)cc2OC(C)C)c(Cl)c1Cl`, for which the IC50 in the experiment on MCF7 and in the experiment with HepG2 was more than 50 µM throughout.

By IC50 is commonly meant the concentration that inhibits the measured activity by half. The low end stands for greater potency, the high end for weaker potency.
